Laboratory results from PMC7862700.
The list shows a part of the results, in another mix than the full data. At the low end of the ranking, values are background and their order means little.

Amino acid sequences for entries named in this document (tags omitted). A change or cut given only in a name is not applied to a line headed by its entry.
UniProt P41212: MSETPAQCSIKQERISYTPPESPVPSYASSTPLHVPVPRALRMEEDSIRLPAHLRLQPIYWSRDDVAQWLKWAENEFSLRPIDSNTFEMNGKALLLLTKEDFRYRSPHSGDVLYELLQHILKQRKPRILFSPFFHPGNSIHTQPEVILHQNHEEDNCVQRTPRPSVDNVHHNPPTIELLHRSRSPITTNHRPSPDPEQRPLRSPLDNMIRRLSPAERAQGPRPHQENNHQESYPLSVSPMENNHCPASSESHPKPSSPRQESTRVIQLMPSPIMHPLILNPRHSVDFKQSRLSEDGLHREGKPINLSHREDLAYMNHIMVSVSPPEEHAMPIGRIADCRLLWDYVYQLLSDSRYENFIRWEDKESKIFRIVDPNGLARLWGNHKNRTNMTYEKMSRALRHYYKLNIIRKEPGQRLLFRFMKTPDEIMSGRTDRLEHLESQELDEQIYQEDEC

Molecular target: ETV6 (UniProt P41212)
Experiment: DAPPL (digital affinity profiling via proximity ligation, sequencing)
Settings: 10 mM Tris-HCl pH 7.5, 50 mM NaCl, 1 mM DTT, 4% glycerol, room temperature, 30 min; GST-TFs on glutathione beads, 16-mer random dsDNA library, 0.1% …; high values mean tight binding; double strand, one strand shown; scale: fold enrichment (6-mer frequency, TF over GST control)

Sequence | binding signal
GTATAC | 1.19
TAGACA | 0.95
CGCGAT | 1.05
CATCTC | 1.26
TTGTTG | 1.07
GCGATA | 0.98
GTACGA | 1.05
CGGAAG | 3.4
GGGTTT | 1.07
CACCTA | 1.02
TAGGTA | 0.996
GTCTCC | 1.51
GCGCTT | 1.33
AATATT | 1.46
ATTTTG | 1.24
CCGTCT | 1.39
TTGCAA | 1.16
TCCCGG | 2.46
ACTTAG | 1.14
CGCACT | 1.25

Sequence | binding signal
CTAACT | 1.29
CGATGC | 0.993
TCCGGG | 1.77
GGTTCT | 0.911
GTGCTA | 0.983
TTATCG | 1.27
CACCCG | 1.11
CCGCCA | 1.26
TCCAAA | 1.14
CCGCAG | 1
TACGGC | 1.2
GGCCCT | 0.983
CTTCGT | 1.31
TGACGG | 0.964
TAGCAT | 1.15
ACATTT | 1.56
ACCGGC | 1.31
CGTTTA | 1.14
CTGATT | 1.17
CAATTT | 1.32

3 neighbouring records from above, quoted:
Sequence | binding signal
GGTTCT | 0.911
GTGCTA | 0.983
TTATCG | 1.27
